Results taken from paper PMC3379994, “Comprehensive Analysis of Interactions between the Src-Associated Protein in Mitosis of 68 kDa and the Human Src-Homology 3 Proteome” (PLoS ONE, 2012).
No constants are given. Whether binding was seen depends on the method and setting. For some of these results: In cells and extracts the contact can be indirect. Some results given as binding are weak or reduced against the parent protein; the word gives no strength. For some of these results: Sequences can lack the tags named with a protein.

B1: SH3 domain from Nephrocystin, displayed on M13 phage (domain or fragment, UniProt O15259 152-212)
chain: STGEEYIAVGDFTAQQVGDLTFKKGEILLVIEKKPDGWWIAKDAKGNEGLVPRTYLEPYSE
B2: SH3 domain #3 from Intersectin 2, displayed on M13 phage (domain or fragment, UniProt Q9NZM3 981-1039)
chain: SVGEEYIALYPYSSVEPGDLTFTEGEEILVTQKDGEWWTGSIGDRSGIFPSNYVKPKDQ
B3: YFP-tagged SH3 domain #3 of Intersectin 2 (domain or fragment, UniProt Q9NZM3 981-1039)
chain: B2 chain
B4: SH3 domain from Osteoclast stimulating factor 1, displayed on M13 phage (domain or fragment, UniProt Q92882 12-71)
chain: GQVKVFRALYTFEPRTPDELYFEEGDIIYITDMSDTNWWKGTSKGRTGLIPSNYVAEQAE
B5: YFP-tagged SH3 domain of osteoclast stimulating factor 1 (domain or fragment, UniProt Q92882 12-71)
chain: B4 chain

Tests used:
[1] = molecular target: His-tagged Sam68 (Src-associated in mitosis, 68 kDa) (human (cDNA from HEK293T cells)) (UniProt Q07666); assay: phage display bio-panning; 10 µg His-Sam68 or GST-Sam68 immobilised on magnetic M-270 epoxy beads; human SH3 phage library (296 domains as pVIII fusions), 1 h; 10 washes with PBS + 0.05 % Tween-20; elution at pH 2.2; 162 clones sequenced; only the target purified
[2] = molecular target: His-tagged Sam68 (Src-associated in mitosis, 68 kDa) (human (cDNA from HEK293T cells)) (UniProt Q07666); assay: ELISA; only the target purified
[3] = molecular target: CFP-tagged Sam68 (human (cDNA from HEK293T cells)) (UniProt Q07666); assay: FRET or BRET; flow-cytometry-based FRET in living 293T cells co-transfected with CFP- and YFP-tagged proteins, analysed 48 h after transfection

| Binder | binding [1] | binding [2] | binding [3] |
| --- | --- | --- | --- |
| B1 | binds | – | – |
| B2 | binds | binds | – |
| B3 | – | – | binds |
| B4 | binds | binds | – |
| B5 | – | – | binds |
